Reference: PMC7522779
These are yes or no findings as the source states them, for the method shown. For some assays here: Binding seen in cells or lysates may run through a third protein. Some results given as binding are weak or reduced against the parent protein; the word gives no strength. For some assays here: Sequences can lack the tags named with a protein.

T1: Pex14p^TPA-S266A (non-phosphorylatable mutant) (S. cerevisiae) (UniProt P53112)
T1 sequence: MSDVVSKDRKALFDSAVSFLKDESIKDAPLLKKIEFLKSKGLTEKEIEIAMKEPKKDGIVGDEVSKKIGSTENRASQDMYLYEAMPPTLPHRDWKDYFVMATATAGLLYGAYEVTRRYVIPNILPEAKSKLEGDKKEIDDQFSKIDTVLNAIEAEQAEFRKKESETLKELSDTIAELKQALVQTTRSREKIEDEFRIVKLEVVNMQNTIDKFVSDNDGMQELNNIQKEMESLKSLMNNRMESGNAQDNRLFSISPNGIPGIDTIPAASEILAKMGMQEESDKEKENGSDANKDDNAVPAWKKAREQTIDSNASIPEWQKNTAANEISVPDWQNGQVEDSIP

T2: Pex14p^TPA-S266D (phosphomimicking mutant) (S. cerevisiae) (UniProt P53112)
T2 sequence: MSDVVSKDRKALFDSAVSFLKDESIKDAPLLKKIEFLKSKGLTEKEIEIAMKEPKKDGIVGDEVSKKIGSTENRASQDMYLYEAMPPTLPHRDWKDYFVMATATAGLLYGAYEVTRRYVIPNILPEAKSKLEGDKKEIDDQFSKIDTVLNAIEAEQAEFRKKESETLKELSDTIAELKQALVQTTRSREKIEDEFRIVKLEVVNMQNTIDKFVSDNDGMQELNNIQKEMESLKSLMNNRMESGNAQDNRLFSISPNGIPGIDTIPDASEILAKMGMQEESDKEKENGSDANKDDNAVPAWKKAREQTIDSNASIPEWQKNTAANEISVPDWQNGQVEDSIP

T3: Pex14p-S266A, Gal4p fusion protein for yeast two-hybrid (S. cerevisiae) (UniProt P53112)
T3 sequence: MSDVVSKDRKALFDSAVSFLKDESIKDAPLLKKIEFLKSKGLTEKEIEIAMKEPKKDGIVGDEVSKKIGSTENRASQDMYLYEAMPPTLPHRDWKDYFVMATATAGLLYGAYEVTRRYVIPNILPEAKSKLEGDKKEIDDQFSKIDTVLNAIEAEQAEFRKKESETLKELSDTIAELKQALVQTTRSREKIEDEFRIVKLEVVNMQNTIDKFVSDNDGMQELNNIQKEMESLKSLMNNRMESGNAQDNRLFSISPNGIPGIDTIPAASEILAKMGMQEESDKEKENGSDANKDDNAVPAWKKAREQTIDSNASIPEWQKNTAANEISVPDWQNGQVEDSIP

T4: Pex14p-S266D, Gal4p fusion protein for yeast two-hybrid (S. cerevisiae) (UniProt P53112)
T4 sequence: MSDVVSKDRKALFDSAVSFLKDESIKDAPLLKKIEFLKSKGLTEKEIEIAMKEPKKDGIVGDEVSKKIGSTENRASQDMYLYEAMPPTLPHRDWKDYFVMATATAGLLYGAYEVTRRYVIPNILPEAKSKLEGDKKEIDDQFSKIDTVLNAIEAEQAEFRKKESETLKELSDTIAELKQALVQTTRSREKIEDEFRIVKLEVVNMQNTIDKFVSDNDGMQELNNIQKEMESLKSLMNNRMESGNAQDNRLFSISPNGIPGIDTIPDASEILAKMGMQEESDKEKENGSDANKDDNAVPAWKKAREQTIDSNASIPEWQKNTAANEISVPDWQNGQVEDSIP

T5: Pex14p wild-type, Gal4p fusion protein for yeast two-hybrid (S. cerevisiae) (UniProt P53112)
T5 sequence: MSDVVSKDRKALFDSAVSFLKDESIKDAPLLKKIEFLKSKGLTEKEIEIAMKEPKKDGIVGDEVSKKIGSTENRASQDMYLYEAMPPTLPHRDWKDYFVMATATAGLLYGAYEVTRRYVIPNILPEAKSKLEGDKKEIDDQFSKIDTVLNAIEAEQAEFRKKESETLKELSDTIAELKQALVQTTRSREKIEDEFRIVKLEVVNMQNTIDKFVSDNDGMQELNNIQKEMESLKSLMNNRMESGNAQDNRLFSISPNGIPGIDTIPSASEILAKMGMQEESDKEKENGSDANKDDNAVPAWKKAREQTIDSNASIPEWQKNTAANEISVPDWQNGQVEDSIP


Legend:
[1] = target: T1, Pex14p^TPA-S266A (non-phosphorylatable mutant) (S. cerevisiae); assay: co-IP; TPA-tagged Pex14p variants as baits captured on IgG-coupled Sepharose from 1% digitonin-solubilised total membranes of cells grown 16 h in oleic acid medium; eluted by TEV protease cleavage; eluates immunoblotted
[2] = target: T2, Pex14p^TPA-S266D (phosphomimicking mutant) (S. cerevisiae); assay: as above
[3] = target: T3, Pex14p-S266A, Gal4p fusion protein for yeast two-hybrid (S. cerevisiae); assay: two-hybrid; liquid ß-galactosidase assay with 2-nitrophenyl β-D-galactopyranoside; GAL4 BD and AD fusions in strain PCY2 pex14Δ; triplicate measurements of three independent transformants
[4] = target: T4, Pex14p-S266D, Gal4p fusion protein for yeast two-hybrid (S. cerevisiae); assay: as above
[5] = target: T3, Pex14p-S266A, Gal4p fusion protein for yeast two-hybrid (S. cerevisiae); assay: two-hybrid; ß-galactosidase filter assay with X-Gal; GAL4 BD and AD fusions co-transformed into strain PCY2 pex14Δ
[6] = target: T5, Pex14p wild-type, Gal4p fusion protein for yeast two-hybrid (S. cerevisiae); assay: as above
[7] = target: T4, Pex14p-S266D, Gal4p fusion protein for yeast two-hybrid (S. cerevisiae); assay: as above

Binder | binding [1] | binding [2] | other results
Pex7p (protein, UniProt P39108 1-375) MLRYHMQGFSGYGVQYSPFFDNRLAVAAGSNFGLVGNGKLFILEIDRSGRIVEVNSFLTQDCLFDLAWNESHENQVLVAQGDGTLRLFDTTFKEFPIAIFKEHEREVFSCNWNLVNRQNFLSSSWDGSIKIWSPLRKQSLMTLTPRPLEITKMVDPLNAIILKKKSFTGISKNRNCVYQAQFSPHDQNLVLSCSGNSYASLFDIRLPSGKNQNNFLVHSGLEALTCDFNKYRPYVVATGGVDNAIRIWDIRMLNKNESATIKRTVPGQLHNSSCINEIPNAHGLAIRKVTWSPHHSNILMSASYDMTCRIWRDLSNDGAKETYKTNSTDATKGSIFNFTQHSEFVFGADWSLWGKPGYVASTAWDGNLFVWNGLG | binds | binds | –
Pex17p, Gal4p fusion protein for yeast two-hybrid (protein, UniProt P40155 1-199) MTSINSFPRNIDWPSNIGIKKIEGTNPTVNAIKGLLYNGGSIYAFLYFVIAMFVEPTLQKQYQQRNDFSLFVLLRLRRIIAQLQKRLVMTPVSSLGFNEQNNFVERSTQTSDDNIIREDNSHWAEMIYQLQNMKQELQYFNRSSGQPSESIDDFVFQIKMVTDQVELTDRSRAFSNKSRNIIQGIREIKGWFVNGQVPR | – | – | binding [3]: binds; binding [4]: binds
Pex5p, Gal4p fusion protein for yeast two-hybrid (protein, UniProt P35056 1-612) MDVGSCSVGNNPLAQLHKHTQQNKSLQFNQKNNGRLNESPLQGTNKPGISEAFISNVNAISQENMANMQRFINGEPLIDDKRRMEIGPSSGRLPPFSNVHSLQTSANPTQIKGVNDISHWSQEFQGSNSIQNRNADTGNSEKAWQRGSTTASSRFQYPNTMMNNYAYASMNSLSGSRLQSPAFMNQQQSGRSKEGVNEQEQQPWTDQFEKLEKEVSENLDINDEIEKEENVSEVEQNKPETVEKEEGVYGDQYQSDFQEVWDSIHKDAEEVLPSELVNDDLNLGEDYLKYLGGRVNGNIEYAFQSNNEYFNNPNAYKIGCLLMENGAKLSEAALAFEAAVKEKPDHVDAWLRLGLVQTQNEKELNGISALEECLKLDPKNLEAMKTLAISYINEGYDMSAFTMLDKWAETKYPEIWSRIKQQDDKFQKEKGFTHIDMNAHITKQFLQLANNLSTIDPEIQLCLGLLFYTKDDFDKTIDCFESALRVNPNDELMWNRLGASLANSNRSEEAIQAYHRALQLKPSFVRARYNLAVSSMNIGCFKEAAGYLLSVLSMHEVNTNNKKGDVGSLLNTYNDTVIETLKRVFIAMNRDDLLQEVKPGMDLKRFKGEFSF | – | – | binding [5]: binds; binding [6]: binds; binding [7]: binds

Now from value to binder, other results behind:

binding [1] | binding [2] | Binder | other results
binds | binds | Pex17p (protein, UniProt P40155 1-199) MTSINSFPRNIDWPSNIGIKKIEGTNPTVNAIKGLLYNGGSIYAFLYFVIAMFVEPTLQKQYQQRNDFSLFVLLRLRRIIAQLQKRLVMTPVSSLGFNEQNNFVERSTQTSDDNIIREDNSHWAEMIYQLQNMKQELQYFNRSSGQPSESIDDFVFQIKMVTDQVELTDRSRAFSNKSRNIIQGIREIKGWFVNGQVPR | –
binds | binds | Pex5p (protein, UniProt P35056 1-612) MDVGSCSVGNNPLAQLHKHTQQNKSLQFNQKNNGRLNESPLQGTNKPGISEAFISNVNAISQENMANMQRFINGEPLIDDKRRMEIGPSSGRLPPFSNVHSLQTSANPTQIKGVNDISHWSQEFQGSNSIQNRNADTGNSEKAWQRGSTTASSRFQYPNTMMNNYAYASMNSLSGSRLQSPAFMNQQQSGRSKEGVNEQEQQPWTDQFEKLEKEVSENLDINDEIEKEENVSEVEQNKPETVEKEEGVYGDQYQSDFQEVWDSIHKDAEEVLPSELVNDDLNLGEDYLKYLGGRVNGNIEYAFQSNNEYFNNPNAYKIGCLLMENGAKLSEAALAFEAAVKEKPDHVDAWLRLGLVQTQNEKELNGISALEECLKLDPKNLEAMKTLAISYINEGYDMSAFTMLDKWAETKYPEIWSRIKQQDDKFQKEKGFTHIDMNAHITKQFLQLANNLSTIDPEIQLCLGLLFYTKDDFDKTIDCFESALRVNPNDELMWNRLGASLANSNRSEEAIQAYHRALQLKPSFVRARYNLAVSSMNIGCFKEAAGYLLSVLSMHEVNTNNKKGDVGSLLNTYNDTVIETLKRVFIAMNRDDLLQEVKPGMDLKRFKGEFSF | –
